Experimental data from the supplement of paper PMC10849652.
Some of the results follow.

By UniProt entry, the sequences of proteins in these tests, tags left out. Where a name states a change or a piece, a line headed by the entry shows the natural chain unless it says otherwise.
UniProt A6NK58: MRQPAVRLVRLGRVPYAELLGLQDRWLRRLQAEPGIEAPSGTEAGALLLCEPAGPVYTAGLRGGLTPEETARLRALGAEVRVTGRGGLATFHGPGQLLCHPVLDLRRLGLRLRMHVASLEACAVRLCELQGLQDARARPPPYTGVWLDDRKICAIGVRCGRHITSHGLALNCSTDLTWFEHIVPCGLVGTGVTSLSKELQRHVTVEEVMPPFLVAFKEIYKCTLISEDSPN
UniProt Q6ZV70: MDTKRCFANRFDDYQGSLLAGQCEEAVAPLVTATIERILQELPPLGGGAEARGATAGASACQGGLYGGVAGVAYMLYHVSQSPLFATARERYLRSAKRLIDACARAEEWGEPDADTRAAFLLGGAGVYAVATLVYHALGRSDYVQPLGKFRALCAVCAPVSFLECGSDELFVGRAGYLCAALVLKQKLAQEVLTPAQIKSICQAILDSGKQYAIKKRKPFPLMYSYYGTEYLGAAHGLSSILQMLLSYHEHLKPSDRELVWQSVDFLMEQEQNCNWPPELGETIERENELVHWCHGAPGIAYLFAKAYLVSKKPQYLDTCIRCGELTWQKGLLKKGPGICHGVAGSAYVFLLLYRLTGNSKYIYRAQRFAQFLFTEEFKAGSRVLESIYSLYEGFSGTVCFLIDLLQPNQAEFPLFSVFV
UniProt P55268: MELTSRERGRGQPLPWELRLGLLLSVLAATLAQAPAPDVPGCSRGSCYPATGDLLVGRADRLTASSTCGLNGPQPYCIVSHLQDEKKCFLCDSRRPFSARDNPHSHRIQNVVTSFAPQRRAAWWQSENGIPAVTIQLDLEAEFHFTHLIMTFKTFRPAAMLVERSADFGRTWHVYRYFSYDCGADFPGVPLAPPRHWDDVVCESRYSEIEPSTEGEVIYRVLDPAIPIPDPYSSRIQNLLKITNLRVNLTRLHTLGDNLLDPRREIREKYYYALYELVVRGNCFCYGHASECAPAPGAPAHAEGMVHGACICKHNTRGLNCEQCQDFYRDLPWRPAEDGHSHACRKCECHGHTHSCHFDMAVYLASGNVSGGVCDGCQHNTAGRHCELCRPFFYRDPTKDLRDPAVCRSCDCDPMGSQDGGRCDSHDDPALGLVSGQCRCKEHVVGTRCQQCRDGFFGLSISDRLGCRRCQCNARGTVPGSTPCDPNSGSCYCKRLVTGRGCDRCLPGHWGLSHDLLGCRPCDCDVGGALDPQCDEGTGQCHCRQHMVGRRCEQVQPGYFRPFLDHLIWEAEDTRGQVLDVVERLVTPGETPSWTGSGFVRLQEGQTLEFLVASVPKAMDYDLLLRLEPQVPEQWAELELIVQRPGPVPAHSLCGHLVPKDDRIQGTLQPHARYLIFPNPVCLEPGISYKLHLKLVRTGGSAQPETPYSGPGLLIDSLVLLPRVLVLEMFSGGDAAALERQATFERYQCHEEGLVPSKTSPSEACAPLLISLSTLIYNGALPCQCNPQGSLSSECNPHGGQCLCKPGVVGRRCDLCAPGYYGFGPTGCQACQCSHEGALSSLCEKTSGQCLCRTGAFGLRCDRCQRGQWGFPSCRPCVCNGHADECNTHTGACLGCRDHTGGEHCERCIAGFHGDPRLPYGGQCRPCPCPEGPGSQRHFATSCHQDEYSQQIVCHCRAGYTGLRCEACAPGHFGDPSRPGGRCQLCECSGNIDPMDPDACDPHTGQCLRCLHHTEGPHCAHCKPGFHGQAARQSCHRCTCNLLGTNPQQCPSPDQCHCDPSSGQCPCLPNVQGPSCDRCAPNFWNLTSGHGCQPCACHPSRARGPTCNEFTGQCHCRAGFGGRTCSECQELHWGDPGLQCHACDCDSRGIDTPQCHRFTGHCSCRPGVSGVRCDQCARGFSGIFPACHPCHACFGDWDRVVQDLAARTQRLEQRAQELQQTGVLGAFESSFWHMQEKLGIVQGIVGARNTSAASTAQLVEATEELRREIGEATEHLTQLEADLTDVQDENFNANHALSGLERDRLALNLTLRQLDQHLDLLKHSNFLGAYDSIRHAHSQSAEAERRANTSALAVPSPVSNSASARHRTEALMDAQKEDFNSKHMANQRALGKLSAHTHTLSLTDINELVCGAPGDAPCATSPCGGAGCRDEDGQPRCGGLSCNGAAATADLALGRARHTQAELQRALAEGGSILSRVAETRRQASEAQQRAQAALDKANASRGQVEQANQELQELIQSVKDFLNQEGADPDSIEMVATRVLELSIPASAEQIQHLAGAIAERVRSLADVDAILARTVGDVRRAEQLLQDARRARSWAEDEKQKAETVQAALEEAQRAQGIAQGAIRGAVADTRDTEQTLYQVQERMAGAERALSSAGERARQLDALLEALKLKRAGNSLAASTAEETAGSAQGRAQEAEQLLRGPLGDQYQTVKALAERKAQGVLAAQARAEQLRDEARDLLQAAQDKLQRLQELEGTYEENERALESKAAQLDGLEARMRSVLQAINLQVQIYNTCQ
UniProt Q9BQD3: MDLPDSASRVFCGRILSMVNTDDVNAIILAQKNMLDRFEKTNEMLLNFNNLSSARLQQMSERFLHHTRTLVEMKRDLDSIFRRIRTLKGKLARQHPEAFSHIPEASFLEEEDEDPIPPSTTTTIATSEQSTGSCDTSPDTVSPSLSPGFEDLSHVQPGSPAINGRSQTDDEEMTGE
UniProt Q53QV2: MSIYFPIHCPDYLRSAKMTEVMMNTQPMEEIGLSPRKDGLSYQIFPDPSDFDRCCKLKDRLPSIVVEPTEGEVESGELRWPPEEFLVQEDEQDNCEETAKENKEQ
UniProt Q6P1M3: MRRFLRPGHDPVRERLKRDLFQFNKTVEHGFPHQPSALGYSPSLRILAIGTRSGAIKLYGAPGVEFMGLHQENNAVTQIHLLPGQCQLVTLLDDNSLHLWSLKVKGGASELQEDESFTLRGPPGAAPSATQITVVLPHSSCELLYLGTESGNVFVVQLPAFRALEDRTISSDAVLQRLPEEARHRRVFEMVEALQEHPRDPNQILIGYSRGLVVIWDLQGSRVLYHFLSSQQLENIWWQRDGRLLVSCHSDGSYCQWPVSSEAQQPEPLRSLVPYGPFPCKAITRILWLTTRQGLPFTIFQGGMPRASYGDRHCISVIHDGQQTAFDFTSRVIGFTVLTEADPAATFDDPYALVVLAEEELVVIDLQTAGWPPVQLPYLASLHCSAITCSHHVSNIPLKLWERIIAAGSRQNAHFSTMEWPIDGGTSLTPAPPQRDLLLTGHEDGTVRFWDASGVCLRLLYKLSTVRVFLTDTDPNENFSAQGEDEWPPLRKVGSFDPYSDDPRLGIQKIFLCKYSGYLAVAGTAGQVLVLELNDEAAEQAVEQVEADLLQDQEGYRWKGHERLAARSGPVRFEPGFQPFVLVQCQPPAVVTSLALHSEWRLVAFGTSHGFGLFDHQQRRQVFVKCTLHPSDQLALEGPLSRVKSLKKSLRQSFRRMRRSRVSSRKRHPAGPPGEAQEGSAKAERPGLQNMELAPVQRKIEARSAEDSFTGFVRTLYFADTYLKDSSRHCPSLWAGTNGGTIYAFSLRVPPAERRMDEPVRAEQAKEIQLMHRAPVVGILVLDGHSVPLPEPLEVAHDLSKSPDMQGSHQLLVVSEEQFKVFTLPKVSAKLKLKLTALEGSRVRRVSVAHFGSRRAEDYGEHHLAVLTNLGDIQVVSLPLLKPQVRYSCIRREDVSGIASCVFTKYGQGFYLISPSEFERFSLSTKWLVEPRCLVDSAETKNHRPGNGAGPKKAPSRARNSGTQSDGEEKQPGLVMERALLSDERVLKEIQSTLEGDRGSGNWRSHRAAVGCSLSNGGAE
UniProt Q15048: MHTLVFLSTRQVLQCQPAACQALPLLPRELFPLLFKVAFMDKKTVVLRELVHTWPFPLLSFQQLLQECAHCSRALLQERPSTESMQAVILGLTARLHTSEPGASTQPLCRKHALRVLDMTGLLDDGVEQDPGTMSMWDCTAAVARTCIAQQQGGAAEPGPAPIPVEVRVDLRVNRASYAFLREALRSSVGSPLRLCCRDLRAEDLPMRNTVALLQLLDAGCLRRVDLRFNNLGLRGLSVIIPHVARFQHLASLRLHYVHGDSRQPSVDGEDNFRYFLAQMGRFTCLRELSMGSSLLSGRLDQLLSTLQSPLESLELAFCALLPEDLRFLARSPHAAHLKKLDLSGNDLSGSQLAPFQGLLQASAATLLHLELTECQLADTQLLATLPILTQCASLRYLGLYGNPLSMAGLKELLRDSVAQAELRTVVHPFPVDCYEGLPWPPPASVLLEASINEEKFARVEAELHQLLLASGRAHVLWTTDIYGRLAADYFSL
UniProt P13473: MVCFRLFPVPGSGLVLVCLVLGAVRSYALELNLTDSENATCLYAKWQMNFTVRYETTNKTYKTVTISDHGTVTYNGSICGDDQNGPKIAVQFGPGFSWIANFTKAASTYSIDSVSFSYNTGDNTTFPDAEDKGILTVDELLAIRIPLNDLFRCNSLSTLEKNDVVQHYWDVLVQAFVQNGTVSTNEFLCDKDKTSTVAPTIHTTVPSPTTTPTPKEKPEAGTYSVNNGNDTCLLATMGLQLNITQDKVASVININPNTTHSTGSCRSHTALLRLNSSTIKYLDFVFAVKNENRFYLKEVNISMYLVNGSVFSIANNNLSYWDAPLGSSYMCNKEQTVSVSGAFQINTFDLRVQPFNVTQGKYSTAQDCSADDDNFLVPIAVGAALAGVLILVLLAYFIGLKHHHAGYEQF
UniProt Q6ZUX7: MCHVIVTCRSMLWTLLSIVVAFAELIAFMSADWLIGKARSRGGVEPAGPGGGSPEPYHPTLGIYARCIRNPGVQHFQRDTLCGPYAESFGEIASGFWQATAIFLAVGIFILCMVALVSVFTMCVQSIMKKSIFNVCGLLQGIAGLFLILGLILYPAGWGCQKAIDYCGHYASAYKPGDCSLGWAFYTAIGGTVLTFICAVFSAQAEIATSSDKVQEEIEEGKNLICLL
UniProt O75197: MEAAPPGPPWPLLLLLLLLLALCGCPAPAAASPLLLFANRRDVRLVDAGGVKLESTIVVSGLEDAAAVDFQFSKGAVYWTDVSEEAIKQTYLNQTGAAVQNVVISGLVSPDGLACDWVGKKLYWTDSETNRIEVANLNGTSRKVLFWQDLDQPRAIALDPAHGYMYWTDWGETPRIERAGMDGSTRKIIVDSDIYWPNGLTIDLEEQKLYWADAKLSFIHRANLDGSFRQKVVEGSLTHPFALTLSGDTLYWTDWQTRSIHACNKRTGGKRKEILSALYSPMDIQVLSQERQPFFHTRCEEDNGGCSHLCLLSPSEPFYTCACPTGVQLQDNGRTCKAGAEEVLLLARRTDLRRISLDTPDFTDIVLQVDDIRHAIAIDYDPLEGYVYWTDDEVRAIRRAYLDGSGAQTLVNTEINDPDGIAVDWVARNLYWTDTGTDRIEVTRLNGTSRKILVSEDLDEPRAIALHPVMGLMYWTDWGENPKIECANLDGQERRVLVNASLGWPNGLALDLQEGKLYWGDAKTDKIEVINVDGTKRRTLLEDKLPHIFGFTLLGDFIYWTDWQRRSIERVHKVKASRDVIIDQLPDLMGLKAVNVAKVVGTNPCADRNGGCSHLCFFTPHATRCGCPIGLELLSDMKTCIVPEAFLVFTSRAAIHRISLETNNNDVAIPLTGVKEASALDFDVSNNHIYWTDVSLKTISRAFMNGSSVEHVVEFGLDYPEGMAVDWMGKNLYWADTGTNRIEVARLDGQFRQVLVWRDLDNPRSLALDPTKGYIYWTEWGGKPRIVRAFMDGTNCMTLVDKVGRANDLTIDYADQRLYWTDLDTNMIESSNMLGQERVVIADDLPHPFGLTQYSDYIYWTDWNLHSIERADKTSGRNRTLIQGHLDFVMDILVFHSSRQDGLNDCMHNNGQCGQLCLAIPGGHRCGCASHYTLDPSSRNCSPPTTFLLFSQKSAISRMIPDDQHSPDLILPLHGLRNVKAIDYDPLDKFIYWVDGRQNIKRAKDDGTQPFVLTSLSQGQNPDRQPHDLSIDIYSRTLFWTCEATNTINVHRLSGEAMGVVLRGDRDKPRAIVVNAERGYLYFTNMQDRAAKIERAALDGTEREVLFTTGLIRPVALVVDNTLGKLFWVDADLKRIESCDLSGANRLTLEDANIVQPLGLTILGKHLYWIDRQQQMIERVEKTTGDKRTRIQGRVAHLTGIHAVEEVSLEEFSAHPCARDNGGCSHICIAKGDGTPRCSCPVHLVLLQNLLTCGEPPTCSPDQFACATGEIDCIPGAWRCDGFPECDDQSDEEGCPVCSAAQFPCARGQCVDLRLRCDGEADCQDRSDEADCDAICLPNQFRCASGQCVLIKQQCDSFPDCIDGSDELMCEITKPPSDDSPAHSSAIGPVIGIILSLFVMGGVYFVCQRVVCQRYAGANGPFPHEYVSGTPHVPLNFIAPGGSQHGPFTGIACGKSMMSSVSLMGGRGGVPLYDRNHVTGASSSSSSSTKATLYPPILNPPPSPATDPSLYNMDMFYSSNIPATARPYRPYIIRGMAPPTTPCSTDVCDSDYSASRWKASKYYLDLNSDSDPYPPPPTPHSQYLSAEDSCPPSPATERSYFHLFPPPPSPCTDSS

Compound: CC1=C(C=C(C=C1)NC(=O)C2=CC(=CC=C2)C(C)(C)C#N)NC3=CC4=C(C=C3)N=CN(C4=O)C
Experiment: log2 fold change, soluble protein after heating vs DMSO (PISA); higher = thermal stabilisation; K562 cells, 10 uM, 30 min; active = over 0.2 and 3.5 SD of the protein, either way, in both replicates (recomputed)
Summary of the method: (§1)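 Soluble protein was defined as the supernatant after 21,000xg for 90 min. It came from K562 cells at 2×10^6 cells/mL given 10 μM compound for 30 min, heated in aliquots for 3 min across 48°C-58°C, pooled, and extracted in PBS with 0.5% NP-40 at 4°C, and was quantified by TMTpro 16plex LC-MS/MS with equalised channel sums. Thermal stability against control samples, from duplicates, is reported as log2 fold change.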

Target	log2 fold change
LIPT2 (UniProt A6NK58)	inactive: 0.202
LIN28A (UniProt Q9H9Z2)	inactive: -0.117
LANCL3 (UniProt Q6ZV70)	inactive: -0.175
LAPTM4B (UniProt Q86VI4)	inactive: 0
LIG4 (UniProt P49917)	inactive: 0.073
LDHC (UniProt P07864)	inactive: -0.144

Compound: CC1=C(C=C(C=C1)NC(=O)C2=CC(=CC=C2)N(C)C)NC(=O)C3=CC=C(C=C3)O
Experiment: as above
Summary of the method: as §1

Target	log2 fold change
LAMB2 (UniProt P55268)	inactive: 0.033
KXD1 (UniProt Q9BQD3)	inactive: -0.025
LBH (UniProt Q53QV2)	inactive: 0.094
LRRC42 (UniProt Q9Y546)	inactive: -0.022
LRMP (UniProt Q12912)	inactive: -0.009
LLGL2 (UniProt Q6P1M3)	inactive: -0.011
LMO4 (UniProt P61968)	inactive: -0.052
LEPROTL1 isoform 2 (UniProt O95214)	inactive: 0.161
LAPTM5 (UniProt Q13571)	inactive: 0.02
LGALS3 (UniProt P17931)	inactive: -0.039
LDLRAP1 (UniProt Q5SW96)	inactive: -0.028

Compound: CC1=CC=C(C=C1)SC2=C3C=C(SC3=CN=C2)C(=O)N
Experiment: as above
Summary of the method: as §1

Target	log2 fold change
LGMN (UniProt Q99538)	inactive: 0.106
LAMB2 (UniProt P55268)	inactive: -0.181
KXD1 (UniProt Q9BQD3)	inactive: 0
LBH (UniProt Q53QV2)	inactive: 0.151
LLGL2 (UniProt Q6P1M3)	inactive: -0.075
LMO4 (UniProt P61968)	inactive: -0.099
LEPROTL1 isoform 2 (UniProt O95214)	inactive: 0.205
LRRC14 (UniProt Q15048)	inactive: -0.105
LMLN isoform 3 (UniProt Q96KR4)	inactive: -0.053
LAMP2 isoform 2 (UniProt P13473)	inactive: -0.07
LHFPL2 (UniProt Q6ZUX7)	inactive: -0.053
LRP5 (UniProt O75197)	inactive: -0.03

Compound: CC1=NC(=CC=C1)C2=C(N=C(N2)C(C)(C)C)C3=CC4=NC=CN=C4C=C3
Experiment: as above
Summary of the method: as §1

Target	log2 fold change
L1TD1 (UniProt Q5T7N2)	inactive: 0.008
LGALSL (UniProt Q3ZCW2)	inactive: 0.088
LANCL3 (UniProt Q6ZV70)	inactive: 0.055
LLGL2 (UniProt Q6P1M3)	inactive: -0.047
LMO4 (UniProt P61968)	inactive: 0.026
LEPROTL1 isoform 2 (UniProt O95214)	inactive: -0.065
LRRC14 (UniProt Q15048)	inactive: 0.021
LIMS1 (UniProt P48059)	inactive: 0.022
LAMP2 isoform 2 (UniProt P13473)	inactive: 0.003
LDLRAP1 (UniProt Q5SW96)	inactive: -0.102
LPCAT4 (UniProt Q643R3)	inactive: 0.145

Compound: CCCCN(Cc1ccc(C(=O)NO)cc1)C(=O)Nc1ccccc1 [Nexturastat A]
Experiment: as above
Summary of the method: as §1

Target	log2 fold change
LAMA5 (UniProt O15230)	inactive: 0.174
LGALS3BP (UniProt Q08380)	inactive: -0.042
LIPT2 (UniProt A6NK58)	inactive: -0.168
KXD1 (UniProt Q9BQD3)	inactive: -0.223
LBH (UniProt Q53QV2)	inactive: -0.089
LEPROT (UniProt O15243)	inactive: -0.02
LANCL3 (UniProt Q6ZV70)	inactive: -0.203
LLGL2 (UniProt Q6P1M3)	inactive: 0.009
LMLN isoform 3 (UniProt Q96KR4)	inactive: 0.127
LOR (UniProt P23490)	inactive: 0.236
LDHC (UniProt P07864)	inactive: 0.443
LRP1 (UniProt Q07954)	inactive: -0.061
LAMP2 isoform 2 (UniProt P13473)	inactive: -0.015
LHFPL2 (UniProt Q6ZUX7)	inactive: -0.052
LRP5 (UniProt O75197)	inactive: 0.07
LPCAT4 (UniProt Q643R3)	inactive: 0.047

Compound: CCCS(=O)(=O)Nc1ccc(F)c(C(=O)c2c[nH]c3ncc(-c4ccc(Cl)cc4)cc23)c1F [vemurafenib]
Experiment: as above
Summary of the method: as §1

Target	log2 fold change
LAMA5 (UniProt O15230)	inactive: -0.396
LIPT2 (UniProt A6NK58)	inactive: -0.135
KXD1 (UniProt Q9BQD3)	inactive: 0.092
LRRC42 (UniProt Q9Y546)	inactive: -0.146
LEPROTL1 isoform 2 (UniProt O95214)	inactive: -0.169
LRRC14 (UniProt Q15048)	inactive: -0.1
LIG4 (UniProt P49917)	inactive: 0.128
LRP1 (UniProt Q07954)	inactive: -0.084
LAMP2 isoform 2 (UniProt P13473)	inactive: -0.082
LHFPL2 (UniProt Q6ZUX7)	inactive: -0.125
LRP5 (UniProt O75197)	inactive: 0.001

Compound: CCCS(=O)(=O)Nc1ccc(F)c(C(=O)c2c[nH]c3ncc(Cl)cc23)c1F
Experiment: as above
Summary of the method: as §1

Target	log2 fold change
LGMN (UniProt Q99538)	inactive: -0.011
LAMB2 (UniProt P55268)	inactive: -0.183
KXD1 (UniProt Q9BQD3)	inactive: 0.059
LBH (UniProt Q53QV2)	inactive: -0.015
LLGL2 (UniProt Q6P1M3)	inactive: -0.081
LMO4 (UniProt P61968)	inactive: -0.092
LEPROTL1 isoform 2 (UniProt O95214)	inactive: -0.054
LRRC14 (UniProt Q15048)	inactive: 0.181
LMLN isoform 3 (UniProt Q96KR4)	inactive: -0.166
LAMP2 isoform 2 (UniProt P13473)	inactive: -0.093
LHFPL2 (UniProt Q6ZUX7)	inactive: -0.105
LRP5 (UniProt O75197)	inactive: 0
